Experiment [1] concerns the target full-length galectin-3 D3/9G (human) (UniProt P17931). The experiment is described as follows: NMR titration; 1H-15N HSQC chemical shifts (Ala-216 region) of D3/9G against wild type and CRD-only at 40 µM and 200 µM protein; one-phase regime; 30 °C; both purified.
Experiment [2] has as its target galectin-3 EE (K199E/K210E) (human) (UniProt P17931). Briefly: NMR titration; 1H-15N HSQC chemical shifts (Ala-216 region) and transverse relaxation rate constants R2 compared at 400 and 40 µM protein; one-phase regime; 30 °C; self-association, monomeric against assembled forms; both purified.
For experiment [3], the target named is galectin-3 GEE (R129G/K199E/K210E) (human) (UniProt P17931). Described as above.
The target of experiment [4] is galectin-3 GQQ (R129G/K199Q/K210Q) (human) (UniProt P17931). Described as above.
Another experiment addresses galectin-3 K199E (human) (UniProt P17931). Described as above.
The target of another experiment is galectin-3 K199Q (human) (UniProt P17931). The experiment is described as above.
Another experiment addresses galectin-3 K210E (human) (UniProt P17931). The description is as above.
The target in a further experiment is galectin-3 K210Q (human) (UniProt P17931). Described as above.
The target in experiment [5] is galectin-3 QQ (K199Q/K210Q) (human) (UniProt P17931). The experiment is described as above.
For another experiment, the target named is galectin-3 R129G (human) (UniProt P17931). Described as above.

Sequences of proteins named here, by UniProt entry; tags and fusion partners are left off. A change or cut given only in a name is not applied to a line headed by its entry. A line that says so, or that is headed by a name, gives the form on record, which may keep a tag or linker.
UniProt P17931: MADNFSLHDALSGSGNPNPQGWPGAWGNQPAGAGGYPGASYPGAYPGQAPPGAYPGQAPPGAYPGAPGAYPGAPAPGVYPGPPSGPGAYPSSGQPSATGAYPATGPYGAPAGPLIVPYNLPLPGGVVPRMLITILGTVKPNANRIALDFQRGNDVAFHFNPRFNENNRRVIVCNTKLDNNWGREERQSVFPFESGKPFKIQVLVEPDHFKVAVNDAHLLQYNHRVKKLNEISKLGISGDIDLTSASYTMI
full-length galectin-3 D3/9G (P17931, form named): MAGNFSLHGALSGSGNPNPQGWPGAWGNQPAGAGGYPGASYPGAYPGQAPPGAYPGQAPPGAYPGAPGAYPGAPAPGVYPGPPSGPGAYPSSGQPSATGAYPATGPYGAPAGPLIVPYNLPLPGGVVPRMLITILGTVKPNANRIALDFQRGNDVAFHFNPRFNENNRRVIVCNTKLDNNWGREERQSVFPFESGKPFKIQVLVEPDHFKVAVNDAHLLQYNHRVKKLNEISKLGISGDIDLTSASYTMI

No constants are given. Whether binding was seen depends on the method and setting. Some results given as binding are weak or reduced against the parent protein; the word gives no strength.

For “full-length galectin-3 D3/9G (from UniProt P17931 1-250)”, the binding result in [1] was “binds”.
Turning to “galectin-3 EE (K199E/K210E) (from UniProt P17931 1-250)”, the binding result in [2] is listed as “binds weakly”.
With “galectin-3 GEE (R129G/K199E/K210E) (from UniProt P17931 1-250)”, the binding entry in experiment [3] is “binds weakly”.
With “galectin-3 GQQ (R129G/K199Q/K210Q) (from UniProt P17931 1-250)”, the binding entry in experiment [4] was “binds weakly”.
In the case of “galectin-3 K199E (from UniProt P17931 1-250)”, the binding result with galectin-3 K199E (human) is given as “binds weakly”.
“galectin-3 K199Q (from UniProt P17931 1-250)”: the binding entry in the experiment with galectin-3 K199Q (human) is reported as “binds”.
In the case of “galectin-3 K210E (from UniProt P17931 1-250)”, the binding result with galectin-3 K210E (human) is on record as “binds weakly”.
As to “galectin-3 K210Q (from UniProt P17931 1-250)”, the binding result with galectin-3 K210Q (human) is listed as “binds”.
As for “galectin-3 QQ (K199Q/K210Q) (from UniProt P17931 1-250)”, the binding result in experiment [5] is given as “binds weakly”.
Turning to “galectin-3 R129G (from UniProt P17931 1-250)”, the binding entry with galectin-3 R129G (human) is given as “binds”.

The record behind these values is article PMC11538691.
